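Assay on Mycobacterium tuberculosis, filed only as a heat shock assay from Cornell; the read-out is not stated. The concentration is filed as 10 mM, unlikely as a test dose, so the dose is not known. The record gives no direction; compounds that gave an IC50 in retests scored well above the rest, so higher reads as stronger inhibition. Size under these conditions: about 69,000 compounds, about 930 of them at 50% or above in at least one test.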

The filed quantity is “Percent Effect” (%).
The controls that fix the scale are not given in the record; negative values are as filed.
The compounds are a random part of those screened.

structure	Percent Effect
c1ccc2c(Cc3nnc([C@H]4CCN(C5CCCCC5)C4)o3)c[nH]c2c1	-8.63%
CN(Cc1ccco1)C1CCC12CCN(C(=O)c1ccnnc1)CC2.O=C(O)C(F)(F)F (configuration not stated)	-16.85%
CC(O)CN1CCN(C(=O)c2cnn(-c3ccc(Cl)cc3)c2)CC1 (configuration not stated)	-9.566%
CN(CCCc1ccc(C(F)(F)F)cc1)Cc1nccn1C	3.04%
O=C(Nc1nncs1)N1CCC(CCO)CC1	8.788%
CC(C)c1ccc(CCC(=O)N(C)C2CCN(C)C2=O)cc1 (configuration not stated)	7.757%
CNc1nc2c(c(C(=O)N3CCCC3)n1)CN(Cc1nccn1C)CC2	5.501%
Cc1ccc(-c2nnc(NC(=O)c3ccn(C)c(=O)c3)[nH]2)s1	-21.1%
FC1(F)CCN(Cc2ccccn2)CC12CCN(c1ncccn1)C2.O=C(O)C(F)(F)F (configuration not stated)	30.64%
CC(Cn1cnc2cn(C)nc2c1=O)Oc1cccnc1 (configuration not stated)	-15.11%
CS(=O)(=O)NCc1ncn2c1CN(Cc1cccs1)CCC2.O=C(O)C(F)(F)F.O=C(O)C(F)(F)F	-7.836%
c1ccc2sc(CN3CCCC3c3noc(C4CC4)n3)nc2c1 (configuration not stated)	23.31%
CCNc1ncc2c(n1)CN(c1ccc(CC)cc1)C2=O	5.11%
O=C(NCc1ccncc1)N1CCSCC1c1ccc(Cl)cc1 (configuration not stated)	-30.31%
Cc1ccn(-c2ccccc2NCc2cccnc2)n1	2.045%
CCCN(CC(=O)OC)C(=O)c1sc(C)nc1C	12.34%
O=S1(=O)N(c2ccccc2)C[C@H](O)[C@]12CCNC2	-17.43%
Cn1cc(CN2CCCC(CCc3ccc(F)cc3)C2)cn1 (configuration not stated)	-23.92%
COCC(C)NC(=O)N(C)Cc1cc(C)on1 (configuration not stated)	-2.237%
CC(C)[C@@H]1CN(C(=O)C2(c3ccccc3)CCN(C)CC2)C[C@H]1N(C)C	-2.992%
NC(=O)CCN(CC(=O)NCc1cccs1)c1ccc(F)cc1	-0.9438%
Cc1ccc2nnc(C(=O)NCCCn3cccn3)nc2c1	47.03%
O=C(O)C(F)(F)F.O=C(O)C(F)(F)F.[H][C@]12CCC[C@@H](CN(C)CCOC)[C@@]1([H])CN(Cc1ccc(OC)nc1)C2	-11.79%
CCn1ncc(S(=O)(=O)N[C@@H]2CC[C@@H](n3ccnc3)[C@@H]2O)c1C	0.3896%
O=S(=O)(NCc1ccccc1Cn1cncn1)N1CCCCC1	-7.959%
Cc1cc(C2CCCN(C(=O)CCc3cscn3)C2)n[nH]1 (configuration not stated)	-13.05%
Cc1ccc(CNc2cnn(CC(F)F)c2)cc1C	-6.855%
COCC1c2nnn(CC3CC3)c2CCN1C(=O)N1CCCC1 (configuration not stated)	-6.014%
CC(C)N1CC2(CCC1=O)CCN(c1ccnc3ccccc13)CC2	5.597%
O=C(CN1CCOC1=O)N1CCc2nnc(Cc3ccccc3)n2CC1	2.62%
Cc1nnc(NC(=O)NCCCN2CCC(C(N)=O)CC2)s1	-8.547%
CCc1nc2c(NCC3COc4cc(OC)ccc4C3)ncnc2o1 (configuration not stated)	15.12%
Cc1ncccc1OC1(C(=O)NCCC2CCCN2C)CCNCC1 (configuration not stated)	-8.493%
Cc1ccc(-c2noc(CN3CCc4cncnc4C3)n2)cc1	-12.63%
CCC(CNS(N)(=O)=O)Oc1ccccc1F (configuration not stated)	-14.06%
CC(C)c1noc(C(C)N2CCN(Cc3cccnc3)CC2)n1 (configuration not stated)	-9.474%
CC(C)CN1CCCC1c1ccc(C(=O)Nc2cn(C)nn2)s1 (configuration not stated)	0.124%
COCCN1CCC(CN(C)c2nc3c(s2)c(C)nn3C)C1 (configuration not stated)	10.66%
Cc1cncc(C2CCN(C(=O)c3ccc(-n4cccn4)nc3)CC2)n1	-14.57%
O=C(c1ccc(-c2cn[nH]c2)nc1)N1CCC(N2CCOCC2)CC1	-2.398%
C=C(C)CN1C(=O)CC(Cc2ccc(F)cc2)C1=O (configuration not stated)	-35.77%
Cc1cc(CNC(=O)NCc2ccccc2N2CCOCC2)no1	-3.162%
CCOCc1ccc(NC(=O)N2CCCC2c2nncn2C)cc1 (configuration not stated)	-1.164%
Cc1cc(C(=O)N2CCc3ncc(CN4CCCC4)n3CC2)no1.O=C(O)C(F)(F)F	13.34%
O=C(NCC(F)(F)F)C1CSCN1S(=O)(=O)c1cccc(F)c1 (configuration not stated)	-29.6%
COc1cccc(O)c1CN1CCCC(Nc2cccc(F)c2)C1 (configuration not stated)	-1.636%
CCOc1ccc(-c2ccc3c(c2)OCO3)cc1C(N)=O	-12.68%
COc1ncccc1CNC(=O)c1cc(C)on1	-6.445%
NC(=O)CNC(=O)c1ccc(CNCc2ccc(Cl)cc2Cl)cc1	14.03%
COc1ccc(C(=O)N2CC(=O)N(C3CCC3)CC(O)C2)cc1OC (configuration not stated)	31.26%
CC(C)N1CCC2(C=C(C(=O)N(C)C)c3ccccc32)CC1.O=C(O)C(F)(F)F	-25.12%
O=C(NCc1cccs1)C1CCCN(c2cc(-n3cncn3)ncn2)C1 (configuration not stated)	5.531%
COc1cc(NCC(c2ccccn2)N2CCOCC2)ncn1 (configuration not stated)	4.618%
CCCC(NC(=O)NCc1cccc(N(C)C)n1)c1ccccn1 (configuration not stated)	-8.979%
CCn1c(C)nnc1SCCNc1cc(COC)ncn1	12.58%
Cc1cc(C(N)=O)ccc1NC(=O)c1nc(N2CCCC2)ncc1Cl	0.8738%
COCc1cccc(CNCc2c(C)nn(C)c2N2CCOCC2)c1	-6.654%
CC(C)(C)c1nccc(N2CCN(C3CCS(=O)(=O)C3)CC2)n1 (configuration not stated)	-5.146%
O=C(O)C(F)(F)F.O=C(O)C(F)(F)F.O=C(c1cccnc1)N1CCC2(CC1)COC(COc1ccccn1)C2 (configuration not stated)	-16.52%
C[C@@H]1CN(S(=O)(=O)N2CCOCC2)C[C@@]1(O)C1CC1	2.769%
CN(CC1COc2ccccc2O1)C(=O)NCCCn1cccn1 (configuration not stated)	12.35%
CC(C)(C)c1ncc(C(=O)NCCSc2ccccn2)c(O)n1	8.094%
CN1CCCC2(C1)CN(C(=O)C1CCCCC1)CCO2 (configuration not stated)	-20.27%
CNC(=O)C1CN(C)CCN1c1nc(C)cc(C)n1 (configuration not stated)	2.013%
Cn1nccc1C(=O)N1CCC2(CC1)COC(COc1ccccn1)C2.O=C(O)C(F)(F)F (configuration not stated)	-4.012%
Cc1cccc(CN(Cc2ccccn2)S(=O)(=O)N(C)C(C)C)c1	-10.54%
Cc1cc(N(Cc2ccon2)S(C)(=O)=O)ccc1Br	-32.19%
CCN1CCN(C2CCN(Cc3c(C)noc3C)CC2)C1=O	7.548%
Cn1cc(NC(=O)Nc2ccccn2)cc(Cl)c1=O	-18.23%
COc1ccccc1OCCC(=O)N1CCCCC1c1nccs1 (configuration not stated)	-0.6566%
COCCN1C[C@@H](C(=O)O)[C@H](c2ccccc2C)C1	-150.9%

Some entries from above, unchanged:

Result for CC(O)CN1CCN(C(=O)c2cnn(-c3ccc(Cl)cc3)c2)CC1 (configuration not stated) was -9.566%.
Result for Cc1ccc(-c2nnc(NC(=O)c3ccn(C)c(=O)c3)[nH]2)s1 was -21.1%.
Result for Cc1ccc(CNc2cnn(CC(F)F)c2)cc1C was -6.855%.
Result for CCOc1ccc(-c2ccc3c(c2)OCO3)cc1C(N)=O was -12.68%.
Result for Cc1cc(C(=O)N2CCc3ncc(CN4CCCC4)n3CC2)no1.O=C(O)C(F)(F)F was 13.34%.

Data taken from ChEMBL document CHEMBL3988442, “University of Dundee, Small-Polar-MMV Screening Library” (2021).